# Test results as given in the supplement of paper PMC11732987, “Enantioselective OTUD7B fragment discovery through chemoproteomics screening and high-throughput optimisation” (Communications Chemistry, 2025).
# The chains behind the UniProt entries cited, without tags or fusion partners. Where a name states a change or a piece, a line headed by the entry shows the natural chain unless it says otherwise.
# UniProt P35998: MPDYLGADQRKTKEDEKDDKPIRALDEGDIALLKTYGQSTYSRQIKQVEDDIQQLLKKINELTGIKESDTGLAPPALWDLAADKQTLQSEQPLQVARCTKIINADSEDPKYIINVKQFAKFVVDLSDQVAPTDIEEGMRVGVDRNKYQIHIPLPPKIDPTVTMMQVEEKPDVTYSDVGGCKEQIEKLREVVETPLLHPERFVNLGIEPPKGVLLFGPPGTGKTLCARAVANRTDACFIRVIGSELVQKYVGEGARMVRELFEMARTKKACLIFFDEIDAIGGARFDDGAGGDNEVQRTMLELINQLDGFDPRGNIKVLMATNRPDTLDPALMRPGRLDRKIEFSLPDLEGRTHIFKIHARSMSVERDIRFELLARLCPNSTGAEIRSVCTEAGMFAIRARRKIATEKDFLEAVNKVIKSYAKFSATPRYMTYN
# This is one part of the list. The data scatter; read single values as rough.
# Target: T1, PSMC2 C180 (UniProt P35998)
# T1 sequence (whole entry): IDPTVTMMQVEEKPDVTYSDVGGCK
# Assay: log2 mean competition ratio of IA-DTB cysteine labelling (DMSO/compound) (log2 ratio); higher = stronger cysteine engagement by compound
# Settings: 50 µM; treatment time: 4 h; cell line lysate: HEK293T
# Method: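 IA-DTB competitive cysteine chemoproteomics in HEK293T RIPA lysate. Lysates were treated with compound 29 or 30 at 50 or 200 µM for 4 h, then IA-DTB (500 µM, 1 h), trypsin-digested, NeutrAvidin-enriched and analysed by diaPASEF. Competition ratio = intensity DMSO / intensity compound (n=4 treated, n=64 DMSO); binding: mean log2 CR ≥ 1 and p ≤ 0.05 plus QC filters. Target is the cysteine site.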
row,SMILES,log2 mean competition ratio
1,O=C(CCl)N[C@H]1CCCc2ccccc21,0.498
2,O=C(CCl)N[C@@H]1CCCc2ccccc21,-0.00104

# Same assay, conditions: 200 µM; treatment time: 4 h; cell line lysate: HEK293T
row,SMILES,log2 mean competition ratio
1,O=C(CCl)N[C@H]1CCCc2ccccc21,-0.0491
2,O=C(CCl)N[C@@H]1CCCc2ccccc21,-0.358
